In the assay the target is Bcl-2-associated athanogene 3 (BAG3) (mouse (endogenous in C57BL/6 BMMSCs)) (UniProt Q9JLV1). Description: co-IP; BMMSC lysates (RIPA lysis buffer, precleared with protein A agarose) incubated with anti-BAG3 or anti-INTS7 antibody overnight at 4 °C, then protein A agarose 3 h at 4 °C; washed with PBS; western blotting.

The chains behind the UniProt entries cited, without tags or fusion partners.
UniProt Q9JLV1: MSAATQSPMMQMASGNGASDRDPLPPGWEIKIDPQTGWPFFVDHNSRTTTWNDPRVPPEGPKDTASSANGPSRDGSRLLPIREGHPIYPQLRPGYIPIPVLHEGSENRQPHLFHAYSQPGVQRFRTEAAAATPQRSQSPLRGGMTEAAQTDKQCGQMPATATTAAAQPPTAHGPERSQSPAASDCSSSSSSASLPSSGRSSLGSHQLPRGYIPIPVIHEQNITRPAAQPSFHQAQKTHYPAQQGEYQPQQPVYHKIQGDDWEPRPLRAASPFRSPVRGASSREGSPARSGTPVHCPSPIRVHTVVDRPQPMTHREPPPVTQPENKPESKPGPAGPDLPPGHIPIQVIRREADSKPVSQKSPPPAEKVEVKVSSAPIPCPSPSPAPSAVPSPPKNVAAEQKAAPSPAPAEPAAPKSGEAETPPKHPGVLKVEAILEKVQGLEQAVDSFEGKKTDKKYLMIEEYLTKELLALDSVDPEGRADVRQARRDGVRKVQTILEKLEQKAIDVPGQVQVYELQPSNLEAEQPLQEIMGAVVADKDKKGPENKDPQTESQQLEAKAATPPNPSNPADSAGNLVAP
UniProt Q7TQK1: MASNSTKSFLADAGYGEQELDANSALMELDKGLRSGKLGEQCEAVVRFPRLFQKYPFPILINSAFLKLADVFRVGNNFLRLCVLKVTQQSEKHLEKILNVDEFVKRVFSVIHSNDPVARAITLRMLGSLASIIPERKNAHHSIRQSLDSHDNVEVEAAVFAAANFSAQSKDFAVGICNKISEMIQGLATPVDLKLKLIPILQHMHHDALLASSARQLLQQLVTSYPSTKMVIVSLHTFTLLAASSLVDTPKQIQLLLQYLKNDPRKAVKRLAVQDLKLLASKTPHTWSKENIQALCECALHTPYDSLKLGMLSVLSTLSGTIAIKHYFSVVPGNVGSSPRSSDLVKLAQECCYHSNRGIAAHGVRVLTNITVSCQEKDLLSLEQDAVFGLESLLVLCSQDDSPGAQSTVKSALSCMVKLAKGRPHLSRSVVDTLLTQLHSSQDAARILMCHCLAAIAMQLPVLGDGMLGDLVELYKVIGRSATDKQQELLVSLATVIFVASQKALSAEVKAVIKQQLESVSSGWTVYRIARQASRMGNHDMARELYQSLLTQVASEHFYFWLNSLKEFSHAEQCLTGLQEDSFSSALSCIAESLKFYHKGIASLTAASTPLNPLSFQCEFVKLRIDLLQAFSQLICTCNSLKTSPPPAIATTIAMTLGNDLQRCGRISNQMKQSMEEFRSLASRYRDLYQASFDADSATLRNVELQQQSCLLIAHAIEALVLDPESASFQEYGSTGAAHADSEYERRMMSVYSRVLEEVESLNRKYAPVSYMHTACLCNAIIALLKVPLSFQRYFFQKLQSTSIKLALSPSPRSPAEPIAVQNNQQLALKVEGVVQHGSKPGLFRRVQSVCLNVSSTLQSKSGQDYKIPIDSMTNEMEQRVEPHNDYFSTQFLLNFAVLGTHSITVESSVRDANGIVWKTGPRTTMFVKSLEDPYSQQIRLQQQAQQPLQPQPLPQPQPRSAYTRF

Results are given in words; binding and its absence hold for the method and conditions named. In cells and extracts the contact can be indirect. Some binding calls cover weakened binding; strength is not graded here.

Drawing on paper PMC10422954, this text covers binding for 1 substance.

Turning to INTS7 (from UniProt Q7TQK1 1-966), the binding entry is “binds”.
